Measurements reported in PubChem BioAssay AID1224826 (NIAID, 2016).
The deposit covers about 17,000 reagents; shown is a part drawn at random. About 1,110 of them (6.6%) were called active. 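Active means lowered or raised reporter signal; replicate intensities are raw and not normalised per plate.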

Screen: 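Regulators of Tlr4 signalling leading to Tnf-alpha expression in macrophages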 (primary screen)
Cell system: RAW264.7 G9 macrophages from mouse bearing reporters for p65 (GFP) and the Tnf promoter (mCherry)
Reagents: siRNA pool against mouse genes, 100 nM
Timing: 16 h of LPS stimulation, after 2 days of siRNA transfection
Conditions: bacterial lipopolysaccharide (Salmonella minnesota R595), 10 ng/ml
Measured: 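Nuclear mCherry signal of the Tnf promoter reporter measured by imaging after background removal, scaled to each plate median and turned into robust z-scores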
Direction: Tnf reporter robust z-score: higher = stronger Tnf promoter reporter signal after LPS; Tnf reporter intensity: higher = stronger Tnf promoter reporter signal
Active means: 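Called active when robust z-score is at most -1.3, matching the median of the Tlr4 knock-down control, or over 3; control wells and wells with under 50 cells never active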
Meaning of the calls: active = Tnf reporter clearly lowered or raised; inactive = no clear change in Tnf reporter

The first 3 entries, ahead of the listing:
gene symbol | Tnf reporter robust z-score | fewer than 50 cells in well | Tnf reporter intensity, replicate 1 | Tnf reporter intensity, replicate 2 | outcome
Cfhr1 | -0.45 | enough cells in well | 130 | 162 | inactive
Zfp414 | 0.28 | enough cells in well | 308 | 75 | inactive
Zbtb12 | -0.32 | enough cells in well | 184 | 185 | inactive

Main list, from the start:
gene symbol | Tnf reporter robust z-score | fewer than 50 cells in well | Tnf reporter intensity, replicate 1 | Tnf reporter intensity, replicate 2 | outcome
Cfhr1 | -0.45 | enough cells in well | 130 | 162 | inactive
Zfp414 | 0.28 | enough cells in well | 308 | 75 | inactive
Zbtb12 | -0.32 | enough cells in well | 184 | 185 | inactive
Hibch | 0.14 | enough cells in well | 244 | 202 | inactive
Rep15 | – | fewer than 50 cells per well; well left out of calls | 324 | 102 | inactive
Tspyl5 | 0.14 | enough cells in well | 229 | 230 | inactive
Cckar | -0.61 | enough cells in well | 209 | 152 | inactive
Rab15 | -0.82 | enough cells in well | 61.5 | 126 | inactive
Nr4a1 | -0.39 | enough cells in well | 257 | 121 | inactive
Cnnm2 | -0.33 | enough cells in well | 218 | 186 | inactive
Slc39a6 | – | fewer than 50 cells per well; well left out of calls | 61.4 | 70.6 | inactive
Cxcl16 | -0.57 | enough cells in well | 144 | 148 | inactive
Cnih3 | – | fewer than 50 cells per well; well left out of calls | 160 | 24.4 | inactive
Ncbp3 | 0.34 | enough cells in well | 262 | 83.3 | inactive
9930014A18Rik | -0.04 | enough cells in well | 205 | 158 | inactive
Ezh1 | -1.86 | enough cells in well | 90.5 | 83.6 | active
Fam24a | 1.65 | enough cells in well | 351 | 123 | inactive
Rad51ap1 | -0.77 | enough cells in well | 209 | 165 | inactive
Il17a | -1.17 | enough cells in well | 144 | 114 | inactive
Rab39a | -0.27 | enough cells in well | 101 | 134 | inactive
Myl12a | – | fewer than 50 cells per well; well left out of calls | 161 | 89.2 | inactive
8030498B09Rik | – | fewer than 50 cells per well; well left out of calls | 115 | 74.3 | inactive
Pcsk4 | – | fewer than 50 cells per well; well left out of calls | 45.5 | 51.3 | inactive
Dpy30 | – | fewer than 50 cells per well; well left out of calls | 125 | 51.5 | inactive
